PubChem BioAssay AID602254 (Broad Institute, 2012)
Fewer than 10 of roughly 1,000 compounds were called active.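 Rule for the calls: active = fitted half-maximal concentration no higher than twice the top valid tested dose, with signal falling; inconclusive = flat curve with 30 to 70% inhibition, or poor fit; inactive = the rest.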 The list shows a part of the results. Measured potencies and affinities stand elsewhere.

These molecules were tested against Golgi-associated PDZ and coiled-coil motif-containing protein (Homo sapiens) (UniProt Q9HD26) (assay: blockers of CAL PDZ–TMR peptide complex – biochemical, fluorescence polarization, untagged CAL PDZ, cherry-pick, set 2, dose response (AID 602254;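 note: 0% = DMSO neutral control and -100% = unlabeled peptide PRC23 positive control; more negative means stronger blocking of peptide binding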)). Details: Purified CAL PDZ; at 60 µM (top of the series).

Activity change, negative = inhibition, inactive:
Cc1ccc2nc(NC(=O)COC(=O)c3ccncc3)sc2c1 2.09%
Cc1noc(C)c1COc1ccc(CC(=O)NCCc2ccccc2)cc1 0.712%
C=CCOc1ccc(Br)cc1CNCCO -0.281%
C=CCc1ccc(OCCn2nnc3ccccc32)c(OC)c1 -0.216%
CC(C)CNC(=O)NC(=O)COC(=O)COc1ccc(Cl)cc1Cl 1.9%
Cn1c(CCN2CCCCCC2)nc2cc(NC(=O)Nc3ccccc3)ccc21 0.978%
COc1ccc(S(=O)(=O)N2CCC(C(=O)N[C@H](C(=O)N3CCCC3)C(C)C)CC2)cc1 1.52%
CN(C)c1ccc(C(=S)N2CCN(c3ccccc3)CC2)cc1 4.38%
O=C(NCc1ccc2c(c1)OCO2)c1ccc(Cl)nc1 -1.21%
CCc1noc(C)c1C(=O)N1CCCC(CCC(=O)NCc2ccc(F)c(F)c2)C1 (centres undefined) 3.47%
Cc1ccc(S(=O)(=O)NCC(=O)NCC(=O)N(C)Cc2ccc3ccccc3c2)cc1C -1.24%
COc1ccc(OCC(=O)Nc2ccccc2C(=O)N2CCOCC2)cc1 -1.76%
COc1ccc(OCCC(=O)OCC(=O)NCc2ccc(F)cc2)cc1 -0.608%
CCN(CC(=O)NCc1cccs1)C(=O)c1cc(=O)[nH]c2ccccc12 -2.51%
CC(C)=C1C(=O)NN(c2cccc(Cl)c2)C1=O 0.379%
CCN(C(=O)CCc1ccccc1)C1CCCCC1 -0.852%
O=C(Nc1ccc(F)cc1)C1CCCN1S(=O)(=O)c1cccc2nsnc12 (centres undefined) 1.12%
O=S(=O)(c1ccccc1)n1ccc2ccccc21 1.85%
COc1ccccc1NC(=S)N(Cc1ccc(C(=O)O)cc1)Cc1ccc(OC)c(OC)c1 1.02%
O=C(CNC(=O)c1ccccc1F)c1ccc(Br)cc1 -1.22%
CNC(=O)Cn1nc(C)c(S(=O)(=O)N2CCOCC2)c1C 0.191%
COc1ccc(OC)c(NC(=O)c2ccc(OC3CSC3)cc2)c1 1.19%
CC(C)(C)NC(=O)C1CC1(c1ccccc1)c1ccccc1 (centres undefined) -1.38%
O=C(COC(=O)c1ccc2ncsc2c1)NCc1ccc(F)cc1 -0.556%
COc1ccccc1OCC(=O)N1CCCC(Nc2ccc(F)c(F)c2)C1 (centres undefined) -2.78%
COc1ccc(NS(=O)(=O)c2cc(NC(=O)c3cnccn3)ccc2OC)cc1Br 8.71%
CCc1nnc(NC(=O)c2cc(C)nc3ccccc23)s1 -9.44%
CC(C)c1ccc(S(=O)(=O)N2CCN(C(=O)c3cccc(F)c3)CC2)cc1 4.73%
Cc1cc2oc(C(=O)Nc3ccc(S(=O)(=O)Nc4ncccn4)cc3)cc(=O)c2cc1Cl 2.6%

Entries shown so far that contain bromine, in the order listed:
Activity change, negative = inhibition, inactive:
C=CCOc1ccc(Br)cc1CNCCO -0.281%
O=C(CNC(=O)c1ccccc1F)c1ccc(Br)cc1 -1.22%
COc1ccc(NS(=O)(=O)c2cc(NC(=O)c3cnccn3)ccc2OC)cc1Br 8.71%
